Assay results published in patent publication US5026825A, “Intranasal calcitonin formulations” (Rhone-Poulenc Rorer Pharmaceuticals Inc., priority 1988, dated 1991).
At least one peptide structure holds a part that was inferred or is arguable (an end, a ring closure or a residue).

Legend:
serum calcium = assay: Testing for bioavailability: intranasal SCT with or without Δ-aminolevulinic acid, serum calcium in rats; type: in vivo, Male Sprague-Dawley rats; settings: intra-nasal SCT 5 U/kg
[1] = in vivo; cited from earlier work
[2] = Hypocalcemic activity (potency) of calcitonins; type: in vivo; settings: calcitonin used in Examples 1-5
[3] = coadministered Δ-aminolevulinic acid 1 mg/ml
[4] = coadministered Δ-aminolevulinic acid 5 mg/ml
[5] = coadministered Δ-aminolevulinic acid 10 mg/ml

SMILES: CC(C)C[C@H](NC(=O)[C@H](CCCCN)NC(=O)CNC(=O)[C@H](CC(C)C)NC(=O)[C@@H](NC(=O)[C@@H]1CSSC[C@H](N)C(=O)N[C@@H](CO)C(=O)N[C@@H](CC(N)=O)C(=O)N[C@@H](CC(C)C)C(=O)N[C@@H](CO)C(=O)N[C@@H]([C@@H](C)O)C(=O)N1)C(C)C)C(=O)N[C@@H](CO)C(=O)N[C@@H](CCC(N)=O)C(=O)N[C@@H](CCC(=O)O)C(=O)N[C@@H](CC(C)C)C(=O)N[C@@H](Cc1c[nH]cn1)C(=O)N[C@@H](CCCCN)C(=O)N[C@@H](CC(C)C)C(=O)N[C@@H](CCC(N)=O)C(=O)N[C@H](C(=O)N[C@@H](Cc1ccc(O)cc1)C(=O)N1CCC[C@H]1C(=O)N[C@@H](CCCNC(=N)N)C(=O)N[C@H](C(=O)N[C@@H](CC(N)=O)C(=O)N[C@H](C(=O)NCC(=O)N[C@@H](CO)C(=O)NCC(=O)N[C@H](C(=O)N1CCC[C@H]1C(N)=O)[C@@H](C)O)[C@@H](C)O)[C@@H](C)O)[C@@H](C)O [SCT, Salmon calcitonin]
- Tmax (time at which maximum hypocalcemia occurred) (serum calcium; Control (no Δ-aminolevulinic acid)): 2.0 h
- Max Hypocalcemia ± S.D. (serum calcium; Control (no Δ-aminolevulinic acid), 0.2M acetate buffer pH 4.1): 16.6 ± 8.2%
- Max Hypocalcemia ± S.D. (serum calcium; [3]): 25.2 ± 3.7%
- Tmax (time at which maximum hypocalcemia occurred) (serum calcium; [3]): 2.0 h
- Max Hypocalcemia ± S.D. (serum calcium; [4]): 30.1 ± 3.3%
- Tmax (time at which maximum hypocalcemia occurred) (serum calcium; [4]): 3.0 h
- Max Hypocalcemia ± S.D. (serum calcium; [5]): 26.7 ± 5.9%
- Tmax (time at which maximum hypocalcemia occurred) (serum calcium; [5]): 3.0 h
- potency (level of hypocalcemic activity) [1]: 4,000 to 6,000 MCR (Medical Research Council) U/mg peptide
- potency [2]: 4,000 MRC (Medical Research Council) units
